The source of these data is PMC4963126.

Amino acid sequences for entries named in this document (tags omitted).
UniProt Q8TEW0: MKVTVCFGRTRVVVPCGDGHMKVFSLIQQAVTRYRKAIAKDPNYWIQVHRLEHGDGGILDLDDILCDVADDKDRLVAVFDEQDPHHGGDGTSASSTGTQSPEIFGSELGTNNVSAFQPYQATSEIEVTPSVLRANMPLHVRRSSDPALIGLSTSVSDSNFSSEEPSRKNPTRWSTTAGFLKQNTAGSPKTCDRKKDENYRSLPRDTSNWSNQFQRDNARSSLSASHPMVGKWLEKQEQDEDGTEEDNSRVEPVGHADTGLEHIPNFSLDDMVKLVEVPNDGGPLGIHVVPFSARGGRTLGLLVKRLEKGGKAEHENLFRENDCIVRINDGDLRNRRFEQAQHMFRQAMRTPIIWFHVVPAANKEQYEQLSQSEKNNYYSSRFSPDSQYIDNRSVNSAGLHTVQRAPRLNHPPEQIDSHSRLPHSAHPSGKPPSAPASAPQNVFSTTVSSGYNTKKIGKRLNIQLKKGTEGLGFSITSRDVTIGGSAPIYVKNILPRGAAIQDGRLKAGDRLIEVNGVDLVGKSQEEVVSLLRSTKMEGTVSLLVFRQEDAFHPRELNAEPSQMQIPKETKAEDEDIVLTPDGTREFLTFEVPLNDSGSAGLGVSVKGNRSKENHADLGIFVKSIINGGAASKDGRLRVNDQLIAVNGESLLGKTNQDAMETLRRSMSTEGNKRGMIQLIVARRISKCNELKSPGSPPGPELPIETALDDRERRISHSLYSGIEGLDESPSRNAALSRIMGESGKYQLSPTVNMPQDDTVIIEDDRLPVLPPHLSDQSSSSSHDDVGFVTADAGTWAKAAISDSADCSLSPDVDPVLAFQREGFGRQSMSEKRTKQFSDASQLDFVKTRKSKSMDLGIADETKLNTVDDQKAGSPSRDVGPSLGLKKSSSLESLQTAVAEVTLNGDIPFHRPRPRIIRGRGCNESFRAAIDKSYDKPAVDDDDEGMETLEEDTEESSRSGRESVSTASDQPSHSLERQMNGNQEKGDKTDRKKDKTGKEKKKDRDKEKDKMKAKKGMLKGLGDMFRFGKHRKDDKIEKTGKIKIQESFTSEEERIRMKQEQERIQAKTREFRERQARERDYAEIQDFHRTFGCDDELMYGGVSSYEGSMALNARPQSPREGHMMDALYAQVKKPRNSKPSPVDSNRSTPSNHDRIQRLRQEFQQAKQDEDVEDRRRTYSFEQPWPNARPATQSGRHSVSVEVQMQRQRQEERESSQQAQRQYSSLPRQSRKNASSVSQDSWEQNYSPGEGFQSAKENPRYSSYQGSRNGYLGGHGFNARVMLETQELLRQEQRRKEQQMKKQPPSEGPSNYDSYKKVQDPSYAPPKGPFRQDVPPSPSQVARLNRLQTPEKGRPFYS
UniProt Q9QR71: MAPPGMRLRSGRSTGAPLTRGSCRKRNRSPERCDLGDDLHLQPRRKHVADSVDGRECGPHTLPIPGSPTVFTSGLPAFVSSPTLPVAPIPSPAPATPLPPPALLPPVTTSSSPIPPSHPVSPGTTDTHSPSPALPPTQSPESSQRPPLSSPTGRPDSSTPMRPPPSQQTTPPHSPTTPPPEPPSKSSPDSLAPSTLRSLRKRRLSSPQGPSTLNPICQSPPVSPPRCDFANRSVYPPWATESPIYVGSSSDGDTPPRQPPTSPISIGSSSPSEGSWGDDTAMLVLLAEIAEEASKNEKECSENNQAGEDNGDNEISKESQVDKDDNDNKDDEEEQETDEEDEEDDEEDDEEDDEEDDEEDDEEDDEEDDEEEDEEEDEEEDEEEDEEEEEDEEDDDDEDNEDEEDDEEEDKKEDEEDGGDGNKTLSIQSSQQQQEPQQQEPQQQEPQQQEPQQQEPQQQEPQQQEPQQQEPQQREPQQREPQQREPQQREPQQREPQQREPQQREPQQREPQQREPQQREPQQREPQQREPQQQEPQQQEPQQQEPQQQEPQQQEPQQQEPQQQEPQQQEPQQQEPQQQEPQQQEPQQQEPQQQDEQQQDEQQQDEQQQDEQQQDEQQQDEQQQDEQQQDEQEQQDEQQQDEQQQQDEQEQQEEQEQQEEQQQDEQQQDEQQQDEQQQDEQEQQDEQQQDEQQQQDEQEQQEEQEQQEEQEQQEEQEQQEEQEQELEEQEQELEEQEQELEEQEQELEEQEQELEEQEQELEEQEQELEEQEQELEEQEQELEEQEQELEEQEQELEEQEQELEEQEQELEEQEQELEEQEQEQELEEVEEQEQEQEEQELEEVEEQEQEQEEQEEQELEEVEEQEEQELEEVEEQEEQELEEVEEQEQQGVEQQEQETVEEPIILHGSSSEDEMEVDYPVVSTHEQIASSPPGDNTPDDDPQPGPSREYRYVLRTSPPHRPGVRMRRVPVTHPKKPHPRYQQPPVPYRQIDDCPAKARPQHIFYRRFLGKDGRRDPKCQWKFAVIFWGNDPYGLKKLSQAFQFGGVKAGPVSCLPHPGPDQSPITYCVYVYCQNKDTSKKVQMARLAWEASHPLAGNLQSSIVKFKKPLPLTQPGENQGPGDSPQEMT

These are yes or no findings as the source states them, for the method shown. Binding seen in cells or lysates may run through a third protein. Some binding calls cover weakened binding; strength is not graded here.

This experiment deals with Par3, endogenous in KSHV-positive PEL cell lines BC-3 and BCBL1 (human (endogenous in BC-3 and BCBL1)) (UniProt Q8TEW0). Put plainly: co-IP; endogenous immunoprecipitation with Par3 specific polyclonal antibody and isotype control from whole cell lysates of KSHV-positive BC-3 and BCBL1 cells (KSHV-negative BJAB alongside).

Turning to “LANA, endogenous in KSHV-positive PEL cell lines BC-3 and BCBL1 (from UniProt Q9QR71 1-1129)”, the binding result is “binds”.
